From PubChem BioAssay AID493014 (National Center for Advancing Translational Sciences (NCATS), 2011)
Among all 340,000 compounds or so, about 170 (0.05%) were called active. Inconclusive results, whose numbers are uncertain, are shown with a selection of clear calls. Calls come from the whole dose curve; as a rule, active = well fitted inhibition curve with a large enough effect in the signal ratio, with a control signal flat (not every such curve was filed as active); inconclusive = small, poorly fitted or top-dose-only effect, or effect the other way, or a change in a side signal; inactive = flat fitted curve, though single readings scatter; the % refers to the signal ratio. Potencies beside an inconclusive call are fits to weak or partial responses and may not hold up.

assay: qHTS Assay to Find Inhibitors of Chronic Active B-Cell Receptor Signaling; details: ABC-DLBCL IkBa-CBG/CBR reporter, luminescence ratio (green luciferase fused to IkBa over red control in TMD8 lymphoma cells), 4 h; activity change, negative = inhibition: at 46.1 µM (top of the series);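 for activity change, negative = inhibition: plate controls were basal doxycycline-induced cells for no effect and cells given 10 µM MG132 for full effect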
Procedure, shortened: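 Compounds up to 46 uM were incubated four hours with TMD8 cells whose green CBG68 luciferase is fused to IkappaBalpha; red CBR luminescence normalised the signal, and concentration-effect curves were fitted to fusion, red and ratio data.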
Potency is the fitted concentration of half-maximal effect.

Structure (SMILES)	activity change, negative = inhibition	Potency
Cc1nn(C)cc1CNC(=O)COc1ccc(Cl)cc1Cl	inconclusive: -15.9%	
COc1ccc(C(F)(F)F)cc1N/C=C/c1nnnn1-c1ccc(C)cc1	inconclusive: 19.8%	
CCN1C(=O)C(CC(=O)Nc2ccc(F)cc2)N(Cc2ccc3c(c2)OCO3)C1=S (centres undefined)	inconclusive: -20.2%	
COc1ccccc1CNC(=O)c1ccccc1OC		inconclusive: 16.4 µM [falling, partial curve, poor fit]
COC(=O)c1c(NC(=O)COC(=O)c2ccc(C)s2)sc2c1CCCCC2	inactive	
O=[N+]([O-])c1ccc(/C=N/Nc2nc(N3CCCCC3)nc(N3CCCCC3)n2)cc1	inactive	
Cc1ccc(NC(=O)c2cc(S(=O)(=O)N3CCC4(CC3)OCCO4)ccc2F)cc1Cl	inconclusive: -0.203%	
CCOc1cccc(C(=O)Nc2ccc(-c3nc4ncccc4o3)cc2C)c1	inconclusive: -2.05%	
O=C(CCNc1ccc(F)cc1)c1cc2ccccc2o1		inconclusive: 3.55 µM [falling, full curve]
O=C1c2ccc(Cl)cc2S(=O)(=O)c2cccc(C(=O)N3CCN(c4ncc(Br)cn4)CC3)c21	inactive	
O=[N+]([O-])c1ccc(CSc2ncnc3c2ncn3[C@@H]2O[C@H](CO)[C@@H](O)[C@H]2O)cc1	inconclusive: -3.87%	
O=C(Nc1ccc(C(=O)O)cc1)/C(=C\c1ccc([N+](=O)[O-])cc1)NC(=O)c1ccc(Br)cc1		inconclusive: 35.5 µM [falling, single point]
NC(=O)CSc1nnc(NC(=O)c2ccc3ccccc3c2)s1		inconclusive: 29.1 µM [rising, single point]
COc1ccccc1/C=C/C(=O)c1c2c(c(C)[nH]c1=O)CCCC2		inconclusive: 5.62 µM [falling, full curve]
CN(C)c1cccc(C(=O)OCC(=O)Nc2ccccc2Sc2ccccc2)c1		inconclusive: 29.1 µM [falling, single point]
COc1cccc(C(=O)CC(=O)C(=O)Nc2cccc([N+](=O)[O-])c2C)c1	inactive	
CC1CN(C(=O)COC(=O)c2nn(-c3ccccc3)c(=O)c3ccccc23)CC(C)O1 (centres undefined)	inactive	
CC(=O)c1cc(C(c2csc(C(C)=O)c2)c2csc(C(C)=O)c2)cs1	inconclusive: -0.704%	
Cc1cc(C)c2c(N)c(C(=O)Nc3ccc(F)cc3)sc2n1		inconclusive: 11.2 µM [falling, partial curve]
CCN(CC)S(=O)(=O)c1cccc(C(=O)Nc2ccccc2C(=O)Nc2ccc(Cl)cc2)c1	inconclusive: 7.49%	
CCOC(=O)CN=C/C(C(=O)Nc1nccs1)=C(/C)O	inconclusive: -3.29%	
O=C(C1CC(=O)N(c2ccc(Br)cc2)C1)N1CCCC1 (centres undefined)	inconclusive: 0.517%	
COc1ccc(C(=O)NN(C)c2nc(C(F)(F)F)nc3ccccc23)cc1		inconclusive: 0.251 µM [falling, full curve, poor fit]
COc1ccc(NC(=O)Nc2nnc(-c3cccs3)s2)cc1	inactive	
CCCCC(=O)Nc1nnc(S(=O)(=O)N(CC)c2ccc(OC)cc2)s1	inconclusive: 7.66%	

A run of entries from further up, as a working copy:
Structure (SMILES)	activity change, negative = inhibition	Potency
CCN1C(=O)C(CC(=O)Nc2ccc(F)cc2)N(Cc2ccc3c(c2)OCO3)C1=S (centres undefined)	inconclusive: -20.2%	
COc1ccccc1CNC(=O)c1ccccc1OC		inconclusive: 16.4 µM [falling, partial curve, poor fit]
COC(=O)c1c(NC(=O)COC(=O)c2ccc(C)s2)sc2c1CCCCC2	inactive	
O=[N+]([O-])c1ccc(/C=N/Nc2nc(N3CCCCC3)nc(N3CCCCC3)n2)cc1	inactive	
Cc1ccc(NC(=O)c2cc(S(=O)(=O)N3CCC4(CC3)OCCO4)ccc2F)cc1Cl	inconclusive: -0.203%	

Going on with the list:

Structure (SMILES)	activity change, negative = inhibition	Potency
O=C(O)c1ccc(NC(=S)NC(=O)c2ccc(-c3ccc(Br)cc3)o2)cc1	inconclusive: -2.92%	
COC(=O)[C@@]1(C)[C@H]2C(=O)N(Cc3ccccc3)C(=O)[C@H]2[C@H]2CN=C(SCC3CC3)N21	inconclusive: 2.46%	
O=C(c1ccc(F)cc1)N(Cc1cccs1)C1CCS(=O)(=O)C1 (centres undefined)	inconclusive: -2.18%	
O=C1CC(NC23CC4CC(CC(C4)C2)C3)C(=O)N1c1ccc2c(c1)OCO2 (centres undefined)	inconclusive: 14.8%	
COc1cc(C2C(C#N)=C(N)Oc3cc4c(cc32)OCO4)cc(OC)c1OC (centres undefined)		inconclusive: 0.708 µM [falling, full curve]
CCOc1ccc(C(c2c(NC(=O)c3ccccc3)sc(C)c2C)N2CCN(C)CC2)cc1 (centres undefined)	inconclusive: -14.3%	
Cn1c(CN2CCCCC2)nc2cc(NC(=O)c3cccs3)ccc21		inconclusive: 23.1 µM [falling, single point]
Cc1ccc(S(=O)(=O)N2C(=O)[C@@H]3Cc4ccccc4CN3C2=O)cc1	inactive	
Cc1cccc(NC(=O)CSc2nccn2Cc2ccco2)c1	inconclusive: 0.83%	
COc1ccc(CN(C)C(=O)CNC(=O)c2ccc(C)cc2)cc1	inconclusive: -9.16%	
O=C(CN1CCN(S(=O)(=O)c2ccc(F)cc2)CC1)Nc1cccc(C(F)(F)F)c1	inactive	
CCOc1ccc(C(=O)NCC2(c3ccccc3)CCOCC2)cc1	inconclusive: 6.11%	
O=C(c1ccc2c(c1)N(Cc1cccc(Cl)c1)C(=O)c1ccccc1S2(=O)=O)N1CCCC1	inconclusive: 23.7%	
COCCNC(=O)C(=O)N/N=C(\C)CC(=O)Nc1ccc2c(c1)OCO2		inconclusive: 22.4 µM [falling, single point]
CCOc1ccc2nc(NC(=O)CSc3nc4ccccc4c(=O)n3Cc3ccco3)sc2c1	inconclusive: -4.66%	
COC(=O)c1c(C)[nH]c(O)c1C=Nc1ccc(Oc2ccccc2)cc1	inconclusive: 1.74%	
COc1ccc(-c2cc(=O)oc3c(C)c(OC(C)C(=O)Nc4ccc(CN5CCOCC5)cc4)ccc23)cc1 (centres undefined)	inconclusive: -6.07%	
CCCOC(=O)COC(=O)c1ccccc1NC(=O)c1ccccc1	inconclusive: -16.9%	
CCCCCCCC(=O)N/N=C/c1ccc([N+](=O)[O-])o1		inconclusive: 4.61 µM [rising, partial curve, poor fit]
Cc1csc(=O)n1CC(=O)OCC(=O)c1c(N)n(C)c(=O)n(C)c1=O	inactive	
COc1cccc(/C=C(\CC(=O)O)c2nc3ccccc3s2)c1		inconclusive: 28.2 µM [falling, partial curve]
O=C(Nc1nnc(C2CC2)s1)c1cccc(S(=O)(=O)N2CC(c3ccccc3)CC2=O)c1 (centres undefined)		inconclusive: 8.91 µM [falling, partial curve, poor fit]
CN(C)C(=O)CCc1ccc2c3c([nH]c2c1)[C@]1(CCC2CCCC2)[C@@H](C(=O)N2CCOCC2)C[C@H](CC(=O)NCCC2=CCCCC2)C(=O)N1CC3	inactive	
Cc1ccccc1C1c2[nH]c3ccccc3c2CCN1C(=O)c1ccc(=O)n(C)n1 (centres undefined)		inconclusive: 35.5 µM [falling, single point]
Cc1cccc(C(=O)NCC(=O)NNC(=O)c2ccccc2O)c1	inactive	

Structure (SMILES)	activity change, negative = inhibition	Potency
CCC(C)(C)c1ccc(OCCCC[n+]2cccc(C)c2)c(C(C)(C)CC)c1	inactive	
O=C1CCc2cc(S(=O)(=O)Nc3cccc(F)c3)cc3c2N1CC3		inconclusive: 0.58 µM [falling, partial curve, poor fit]
COc1ccccc1-c1noc(-c2ccncc2)n1	inconclusive: -3.78%	
Cc1nc2ccc3nc(NC(=O)C4COc5ccccc5O4)sc3c2s1 (centres undefined)		inconclusive: 14.6 µM [falling, single point]
Cc1c(N2C(=O)C(C)SC23C(=O)Nc2ccccc23)c(=O)n(-c2ccccc2)n1C (centres undefined)		inconclusive: 32.6 µM [falling, partial curve, poor fit]
COc1ccc(S(=O)(=O)NCC2CCCN(Cc3ccccc3C)C2)cc1 (centres undefined)	inactive	
COc1cc(/C=N/NC(=O)c2cc(-c3cccn3C)n[nH]2)cc(OC)c1OC	inconclusive: 0.484%	
C=CCNc1oc(-c2cccc(Cl)c2)nc1C#N		inconclusive: 18.4 µM [falling, single point]
CCCCCCC(=O)N/N=C/c1ccc(Br)cc1	inconclusive: -9.89%	
COc1ccccc1NS(=O)(=O)c1cccc(C(=O)N/N=C/c2cn(-c3ccccc3)nc2-c2ccccc2)c1	inconclusive: -0.667%	
O=C(N=Nc1c(O)[nH]c2ccccc12)c1ccccc1NS(=O)(=O)c1cccs1	inactive	
CNC(=O)c1cc2ccccc2o1	inactive	
COc1ccc(C(=O)Nc2cccc(NC(C)=O)c2)cc1OC	inconclusive: -17.1%	
Cc1ccc(NC(=O)CN(C)C(=O)COc2cc(F)ccc2[N+](=O)[O-])cc1		inconclusive: 17.8 µM [falling, single point]
CSc1ccccc1C(=O)Nc1nc2ccccc2[nH]1	inconclusive: -2.76%	
O=S(=O)(c1cccs1)N1CCN(CC(O)COC2CCCc3ccccc32)CC1 (centres undefined)	inactive	
Cc1csc(NC(=O)CSc2nnc(-c3ccncc3)o2)n1		inconclusive: 20.6 µM [falling, single point]
CN(c1ccc(C(=O)N2CCCCC2)cc1)S(C)(=O)=O	inconclusive: 0.511%	
O=C(c1ccc([N+](=O)[O-])cc1)n1nc(-c2ccccc2)nc1NCc1ccccc1		inconclusive: 22.4 µM [falling, single point]
CCCn1nnc(NC(=S)NC(=O)c2ccc(-c3ccc(Br)cc3)o2)n1		inconclusive: 3.55 µM [falling, partial curve, poor fit]
O=C(NCCc1ccccn1)c1ccc(OC(F)F)cc1		inconclusive: 35.5 µM [falling, partial curve, poor fit]
C(=N\Nc1nc(Nc2ccccc2)nc(N2CCOCC2)n1)/c1c[nH]c2ccccc12		inconclusive: 12.6 µM [falling, partial curve]
CC(C)C[C@@H](C(=O)NCc1ccco1)N1C(=O)N2CCc3c([nH]c4ccccc34)[C@@]2(C)C1=O	inconclusive: 2.33%	
O=C(CSc1nnnn1-c1ccccc1)CC(=O)Nc1ccc(Cl)cc1	inactive	
